Reference: article PMC10798561
Positions count from the first letter of the chain named. These are yes or no findings as the source states them, for the method shown. For part of these data: Binding seen in cells or lysates may run through a third protein. Some binding calls cover weakened binding; strength is not graded here. For part of these data: Sequences can lack the tags named with a protein.

The chains behind the UniProt entries cited, without tags or fusion partners. Where a name states a change or a piece, a line headed by the entry shows the natural chain unless it says otherwise.
UniProt P04608: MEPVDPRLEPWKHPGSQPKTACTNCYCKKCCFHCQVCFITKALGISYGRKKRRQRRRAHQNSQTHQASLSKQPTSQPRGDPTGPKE
UniProt O60563: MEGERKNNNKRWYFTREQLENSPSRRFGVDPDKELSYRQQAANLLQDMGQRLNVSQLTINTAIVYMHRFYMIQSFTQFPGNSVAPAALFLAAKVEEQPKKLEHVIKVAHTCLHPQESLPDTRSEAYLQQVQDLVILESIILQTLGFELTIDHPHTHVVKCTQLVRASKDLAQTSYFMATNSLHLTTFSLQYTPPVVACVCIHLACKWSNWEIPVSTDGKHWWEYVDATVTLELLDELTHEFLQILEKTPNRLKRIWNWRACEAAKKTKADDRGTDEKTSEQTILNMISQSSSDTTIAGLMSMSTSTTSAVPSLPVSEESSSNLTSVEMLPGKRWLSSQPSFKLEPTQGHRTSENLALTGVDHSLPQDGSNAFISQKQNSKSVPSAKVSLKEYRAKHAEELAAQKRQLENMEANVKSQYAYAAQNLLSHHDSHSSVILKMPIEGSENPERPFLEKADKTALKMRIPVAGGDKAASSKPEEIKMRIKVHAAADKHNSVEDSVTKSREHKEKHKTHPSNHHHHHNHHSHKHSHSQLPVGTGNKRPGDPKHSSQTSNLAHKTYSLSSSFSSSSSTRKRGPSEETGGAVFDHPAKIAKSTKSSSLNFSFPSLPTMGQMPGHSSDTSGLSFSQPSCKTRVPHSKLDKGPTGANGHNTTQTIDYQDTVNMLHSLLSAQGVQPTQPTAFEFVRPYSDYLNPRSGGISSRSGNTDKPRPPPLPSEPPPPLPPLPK

Assays:
[1] = biological target: T1, TRAF6 TRAFC (residues 346 to 504) fused to maltose-binding protein (UniProt Q9Y4K3); assay: pull-down; in vitro pull-down, Tat truncations fused to GST and TRAF6 C-terminal truncations fused to MBP (fig. S2A); taken as MBP-TRAF6 held, since the reciprocal assay is said to use it as prey; both purified
T1 sequence: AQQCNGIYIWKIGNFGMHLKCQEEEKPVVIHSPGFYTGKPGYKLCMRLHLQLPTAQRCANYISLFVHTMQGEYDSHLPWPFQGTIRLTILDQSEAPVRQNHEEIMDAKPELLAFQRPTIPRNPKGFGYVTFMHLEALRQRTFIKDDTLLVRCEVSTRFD

[2] = biological target: HIV-1 HXB2 Tat, Strep-tagged (HIV-1 (HXB2)) (UniProt P04608); assay: co-IP; HEK293T cells, association of CycT1 or Cdk9 with HIV-1 Tat upon transient transfection with TRAF6, TRAF2, TRAF3 or vector (Fig. 5A)
[3] = biological target: HIV-1 HXB2 Tat, Strep-tagged (HIV-1 (HXB2)) (UniProt P04608); assay: co-IP; HEK293T cells, association of TRAF6 and HIV-1 Tat upon transient transfection with CycT1 and Cdk9 (Fig. 5B)
TRAF2, Flag-tagged = biological target: T2, TRAF2, Flag-tagged (UniProt Q12933); assay: co-IP; HEK293T (Fig. 2C) or HEK293 (Fig. 4E) cells transfected 48 h with Tat-Strep and Flag-tagged TRAF proteins; precipitation with anti-Flag, blots with anti-Flag or anti-Strep; one lane of Fig. 2C tests dependence on RNA
T2 sequence: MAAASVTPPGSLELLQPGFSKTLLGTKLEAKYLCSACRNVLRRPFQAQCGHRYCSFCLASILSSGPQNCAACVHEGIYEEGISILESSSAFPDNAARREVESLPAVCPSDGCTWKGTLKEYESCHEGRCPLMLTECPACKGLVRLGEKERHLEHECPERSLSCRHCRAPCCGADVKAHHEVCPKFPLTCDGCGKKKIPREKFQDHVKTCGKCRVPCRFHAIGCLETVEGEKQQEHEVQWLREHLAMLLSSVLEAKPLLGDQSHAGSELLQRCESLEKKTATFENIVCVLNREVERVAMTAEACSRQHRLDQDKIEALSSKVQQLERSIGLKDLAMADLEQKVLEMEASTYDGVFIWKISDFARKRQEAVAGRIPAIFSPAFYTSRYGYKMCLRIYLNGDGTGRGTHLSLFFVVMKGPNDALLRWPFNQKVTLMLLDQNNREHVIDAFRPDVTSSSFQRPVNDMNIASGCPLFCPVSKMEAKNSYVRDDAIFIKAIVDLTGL

TRAF6 Y473A = biological target: T3, TRAF6 Y473A (UniProt Q9Y4K3); assay: co-IP; transfected HEK293T cells, Strep-tagged Tat and Flag-tagged TRAF6 or TRAF6 mutants, 48 h; which tag was precipitated is not told (Fig. 3C, fig. S5B, fig. S5C, fig. S6B)
T3 sequence: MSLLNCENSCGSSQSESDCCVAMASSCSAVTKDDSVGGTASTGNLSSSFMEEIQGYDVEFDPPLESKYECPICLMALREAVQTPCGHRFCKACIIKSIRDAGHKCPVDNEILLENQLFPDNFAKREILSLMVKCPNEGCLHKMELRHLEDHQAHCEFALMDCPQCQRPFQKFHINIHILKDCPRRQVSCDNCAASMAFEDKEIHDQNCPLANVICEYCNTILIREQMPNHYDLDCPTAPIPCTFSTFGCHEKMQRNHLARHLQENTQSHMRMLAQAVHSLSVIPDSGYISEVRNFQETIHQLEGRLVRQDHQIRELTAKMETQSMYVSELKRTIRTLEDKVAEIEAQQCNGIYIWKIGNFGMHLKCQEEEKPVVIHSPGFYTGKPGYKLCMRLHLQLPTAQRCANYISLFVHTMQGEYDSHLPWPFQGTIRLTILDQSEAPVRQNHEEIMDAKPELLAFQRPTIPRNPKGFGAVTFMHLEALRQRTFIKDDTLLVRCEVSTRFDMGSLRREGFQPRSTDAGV

TRAF6 L77A, Flag-tagged = TRAF6 L77A, Flag-tagged (UniProt Q9Y4K3); assay: as above
TRAF6 F471A = biological target: T4, TRAF6 F471A (UniProt Q9Y4K3); assay: as above
T4 sequence: T3 sequence with F471A, A473Y

TRAF6 C366A = TRAF6 C366A (UniProt Q9Y4K3); assay: as above
TRAF6 F471A/Y473A = TRAF6 F471A/Y473A (UniProt Q9Y4K3); assay: as above
TRAF6 C403A = TRAF6 C403A (UniProt Q9Y4K3); assay: as above
TRAF6 Q82A, Flag-tagged = TRAF6 Q82A, Flag-tagged (UniProt Q9Y4K3); assay: as above

## HIV-1 HXB2 Tat residues 1 to 72 fused to GST (from UniProt P04608 1-72) (domain or fragment)
[1]
  binding: binds weakly

## P-TEFb (CycT1 and Cdk9) found with Tat in HEK293T cells (from UniProt O60563 1-726; P50750 1-372) (complex)
[2]
  binding: binds

## HIV-1 HXB2 Tat residues 1 to 20 fused to GST (from UniProt P04608 1-20) (domain or fragment)
[1]
  binding: no binding

## P-TEFb (CycT1 and Cdk9), overexpressed (from UniProt O60563 1-726; P50750 1-372) (complex)
[3]
  binding: binds

## HIV-1 HXB2 Tat, Strep-tagged (from UniProt P04608 1-86)
TRAF2, Flag-tagged
  binding: no binding
TRAF6 Y473A
  binding: binds
TRAF6 L77A, Flag-tagged
  binding: binds
TRAF6 F471A
  binding: binds
TRAF6 C366A
  binding: binds
TRAF6 F471A/Y473A
  binding: binds
TRAF6 C403A
  binding: binds
TRAF6 Q82A, Flag-tagged
  binding: binds
